Measured values from the supplement of paper PMC10849652.
This is one part of the list.

Sequences of proteins named here, by UniProt entry; tags and fusion partners are left off. A change or cut given only in a name is not applied to a line headed by its entry.
UniProt Q1ED39: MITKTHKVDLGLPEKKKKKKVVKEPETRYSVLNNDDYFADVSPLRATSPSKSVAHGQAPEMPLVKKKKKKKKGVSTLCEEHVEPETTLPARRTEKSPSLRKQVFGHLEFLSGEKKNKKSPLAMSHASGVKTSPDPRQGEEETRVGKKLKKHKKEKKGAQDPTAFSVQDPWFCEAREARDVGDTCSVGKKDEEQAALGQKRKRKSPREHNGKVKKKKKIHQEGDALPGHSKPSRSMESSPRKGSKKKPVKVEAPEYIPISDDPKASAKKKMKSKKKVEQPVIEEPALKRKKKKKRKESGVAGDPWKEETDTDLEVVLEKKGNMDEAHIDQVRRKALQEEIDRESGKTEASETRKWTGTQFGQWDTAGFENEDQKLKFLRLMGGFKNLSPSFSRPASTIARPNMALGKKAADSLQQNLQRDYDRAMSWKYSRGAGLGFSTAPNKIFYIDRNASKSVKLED
UniProt Q5JYT7: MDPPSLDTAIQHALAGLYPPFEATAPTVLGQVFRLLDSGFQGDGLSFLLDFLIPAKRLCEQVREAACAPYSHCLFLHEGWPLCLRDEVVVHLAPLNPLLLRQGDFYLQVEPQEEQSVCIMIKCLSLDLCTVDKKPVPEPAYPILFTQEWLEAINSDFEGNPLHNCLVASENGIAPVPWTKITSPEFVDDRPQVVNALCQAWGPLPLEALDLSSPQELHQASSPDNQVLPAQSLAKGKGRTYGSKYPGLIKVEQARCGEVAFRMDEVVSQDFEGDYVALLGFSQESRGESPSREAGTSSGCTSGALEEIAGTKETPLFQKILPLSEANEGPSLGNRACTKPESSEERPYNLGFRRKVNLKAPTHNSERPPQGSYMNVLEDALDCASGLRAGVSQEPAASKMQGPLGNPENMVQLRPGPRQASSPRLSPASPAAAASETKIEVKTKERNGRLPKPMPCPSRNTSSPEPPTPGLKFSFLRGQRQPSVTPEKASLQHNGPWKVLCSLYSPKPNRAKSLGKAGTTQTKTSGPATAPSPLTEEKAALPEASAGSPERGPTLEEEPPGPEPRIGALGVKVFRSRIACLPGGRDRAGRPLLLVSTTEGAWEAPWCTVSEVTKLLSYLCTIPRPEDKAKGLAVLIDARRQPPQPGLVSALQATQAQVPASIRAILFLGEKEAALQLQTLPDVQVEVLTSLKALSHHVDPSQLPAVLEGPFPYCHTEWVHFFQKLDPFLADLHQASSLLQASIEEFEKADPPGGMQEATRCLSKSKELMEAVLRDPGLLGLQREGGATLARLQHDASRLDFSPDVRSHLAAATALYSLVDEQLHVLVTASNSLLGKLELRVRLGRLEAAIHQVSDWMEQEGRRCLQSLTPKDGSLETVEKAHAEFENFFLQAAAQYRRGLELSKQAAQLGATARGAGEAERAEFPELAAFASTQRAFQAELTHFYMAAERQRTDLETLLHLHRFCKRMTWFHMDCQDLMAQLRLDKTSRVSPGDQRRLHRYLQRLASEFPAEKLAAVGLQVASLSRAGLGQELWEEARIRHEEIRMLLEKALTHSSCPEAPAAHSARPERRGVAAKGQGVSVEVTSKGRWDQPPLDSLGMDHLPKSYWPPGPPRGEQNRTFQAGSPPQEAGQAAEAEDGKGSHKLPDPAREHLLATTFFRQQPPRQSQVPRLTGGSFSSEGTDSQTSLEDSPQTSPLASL
UniProt Q9NVX7: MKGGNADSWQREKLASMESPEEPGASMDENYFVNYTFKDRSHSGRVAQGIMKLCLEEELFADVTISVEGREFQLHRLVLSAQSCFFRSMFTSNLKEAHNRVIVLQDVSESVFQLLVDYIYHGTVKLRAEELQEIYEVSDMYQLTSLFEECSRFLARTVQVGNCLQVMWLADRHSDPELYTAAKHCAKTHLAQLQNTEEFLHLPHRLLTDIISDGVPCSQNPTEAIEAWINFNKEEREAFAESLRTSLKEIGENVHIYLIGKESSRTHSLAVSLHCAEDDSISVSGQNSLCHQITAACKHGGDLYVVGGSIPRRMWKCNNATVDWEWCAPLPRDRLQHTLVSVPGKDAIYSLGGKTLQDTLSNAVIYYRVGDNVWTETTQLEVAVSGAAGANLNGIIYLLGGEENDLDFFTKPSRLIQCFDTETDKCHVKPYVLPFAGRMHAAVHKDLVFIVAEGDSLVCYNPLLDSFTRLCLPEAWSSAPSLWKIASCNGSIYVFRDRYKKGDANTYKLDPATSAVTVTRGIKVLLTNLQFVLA
UniProt Q8N6L1: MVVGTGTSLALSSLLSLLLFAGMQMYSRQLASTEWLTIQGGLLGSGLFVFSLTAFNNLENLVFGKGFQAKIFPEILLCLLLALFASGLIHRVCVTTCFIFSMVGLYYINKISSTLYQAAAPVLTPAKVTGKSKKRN
UniProt Q13351: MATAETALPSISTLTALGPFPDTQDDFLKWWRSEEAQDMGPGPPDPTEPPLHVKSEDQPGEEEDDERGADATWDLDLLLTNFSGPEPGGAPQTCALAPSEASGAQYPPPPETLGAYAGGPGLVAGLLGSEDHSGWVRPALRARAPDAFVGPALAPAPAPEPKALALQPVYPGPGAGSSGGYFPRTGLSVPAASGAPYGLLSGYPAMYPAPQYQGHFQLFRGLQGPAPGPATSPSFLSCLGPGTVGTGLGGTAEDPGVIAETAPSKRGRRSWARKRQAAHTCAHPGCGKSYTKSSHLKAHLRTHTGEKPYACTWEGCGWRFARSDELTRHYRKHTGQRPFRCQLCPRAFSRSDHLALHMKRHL
UniProt Q9BXK1: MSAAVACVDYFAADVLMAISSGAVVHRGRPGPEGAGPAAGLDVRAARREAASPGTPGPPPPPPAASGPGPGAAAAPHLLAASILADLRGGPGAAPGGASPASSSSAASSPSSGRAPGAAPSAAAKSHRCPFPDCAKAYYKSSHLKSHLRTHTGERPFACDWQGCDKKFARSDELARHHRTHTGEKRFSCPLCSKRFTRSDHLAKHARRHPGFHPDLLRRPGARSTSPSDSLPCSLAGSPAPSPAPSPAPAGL
UniProt Q14974, whole entry, looked up: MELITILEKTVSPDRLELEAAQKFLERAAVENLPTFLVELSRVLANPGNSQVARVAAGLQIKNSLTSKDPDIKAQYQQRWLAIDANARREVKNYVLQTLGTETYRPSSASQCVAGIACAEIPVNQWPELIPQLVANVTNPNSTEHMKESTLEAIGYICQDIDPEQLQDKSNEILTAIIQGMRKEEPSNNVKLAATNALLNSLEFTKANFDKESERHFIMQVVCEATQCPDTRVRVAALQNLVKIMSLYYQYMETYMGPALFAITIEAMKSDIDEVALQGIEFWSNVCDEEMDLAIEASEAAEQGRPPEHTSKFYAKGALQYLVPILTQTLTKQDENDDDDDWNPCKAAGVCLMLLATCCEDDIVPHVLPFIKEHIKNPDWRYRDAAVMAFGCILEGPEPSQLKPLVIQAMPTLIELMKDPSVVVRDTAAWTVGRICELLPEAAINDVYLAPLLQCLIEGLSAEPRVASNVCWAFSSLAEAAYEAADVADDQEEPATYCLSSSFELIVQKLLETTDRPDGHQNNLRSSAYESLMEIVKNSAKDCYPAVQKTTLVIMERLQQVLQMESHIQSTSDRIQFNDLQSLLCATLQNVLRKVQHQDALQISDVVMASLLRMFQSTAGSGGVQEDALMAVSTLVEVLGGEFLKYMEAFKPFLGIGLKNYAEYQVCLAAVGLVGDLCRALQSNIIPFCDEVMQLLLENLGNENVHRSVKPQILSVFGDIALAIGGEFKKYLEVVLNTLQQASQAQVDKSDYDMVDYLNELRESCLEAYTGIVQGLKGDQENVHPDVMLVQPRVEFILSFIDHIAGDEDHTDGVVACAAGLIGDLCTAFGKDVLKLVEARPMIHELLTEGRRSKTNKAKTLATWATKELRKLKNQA
UniProt Q96EK5: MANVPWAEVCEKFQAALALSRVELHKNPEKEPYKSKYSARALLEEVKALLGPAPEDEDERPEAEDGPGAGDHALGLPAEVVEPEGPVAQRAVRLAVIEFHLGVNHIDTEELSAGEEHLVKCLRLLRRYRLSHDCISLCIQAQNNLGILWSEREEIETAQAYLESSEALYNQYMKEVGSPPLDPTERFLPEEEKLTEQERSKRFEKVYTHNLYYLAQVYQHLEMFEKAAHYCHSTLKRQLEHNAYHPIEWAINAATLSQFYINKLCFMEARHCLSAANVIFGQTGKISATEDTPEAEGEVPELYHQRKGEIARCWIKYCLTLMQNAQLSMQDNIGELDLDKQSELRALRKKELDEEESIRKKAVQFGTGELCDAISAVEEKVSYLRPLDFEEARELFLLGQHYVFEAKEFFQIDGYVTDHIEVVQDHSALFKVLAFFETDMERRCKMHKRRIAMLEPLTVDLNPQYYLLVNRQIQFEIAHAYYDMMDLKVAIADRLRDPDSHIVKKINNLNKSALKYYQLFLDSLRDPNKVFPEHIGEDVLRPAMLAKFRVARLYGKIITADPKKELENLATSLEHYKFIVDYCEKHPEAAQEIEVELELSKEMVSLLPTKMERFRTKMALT
UniProt O95279: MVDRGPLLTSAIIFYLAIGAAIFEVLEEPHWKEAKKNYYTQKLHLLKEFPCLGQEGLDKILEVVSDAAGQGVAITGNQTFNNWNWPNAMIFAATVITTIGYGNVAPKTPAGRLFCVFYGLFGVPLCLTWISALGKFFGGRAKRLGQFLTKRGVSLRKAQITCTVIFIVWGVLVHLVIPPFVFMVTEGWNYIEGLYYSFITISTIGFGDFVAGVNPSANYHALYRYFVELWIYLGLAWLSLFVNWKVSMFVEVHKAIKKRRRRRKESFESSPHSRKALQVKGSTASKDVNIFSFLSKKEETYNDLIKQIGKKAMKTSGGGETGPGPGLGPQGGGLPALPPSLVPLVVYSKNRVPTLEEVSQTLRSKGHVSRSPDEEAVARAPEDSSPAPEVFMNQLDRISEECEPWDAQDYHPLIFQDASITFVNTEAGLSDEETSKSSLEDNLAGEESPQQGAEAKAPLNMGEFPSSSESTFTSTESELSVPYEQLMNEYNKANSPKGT
UniProt P52294, whole entry, looked up: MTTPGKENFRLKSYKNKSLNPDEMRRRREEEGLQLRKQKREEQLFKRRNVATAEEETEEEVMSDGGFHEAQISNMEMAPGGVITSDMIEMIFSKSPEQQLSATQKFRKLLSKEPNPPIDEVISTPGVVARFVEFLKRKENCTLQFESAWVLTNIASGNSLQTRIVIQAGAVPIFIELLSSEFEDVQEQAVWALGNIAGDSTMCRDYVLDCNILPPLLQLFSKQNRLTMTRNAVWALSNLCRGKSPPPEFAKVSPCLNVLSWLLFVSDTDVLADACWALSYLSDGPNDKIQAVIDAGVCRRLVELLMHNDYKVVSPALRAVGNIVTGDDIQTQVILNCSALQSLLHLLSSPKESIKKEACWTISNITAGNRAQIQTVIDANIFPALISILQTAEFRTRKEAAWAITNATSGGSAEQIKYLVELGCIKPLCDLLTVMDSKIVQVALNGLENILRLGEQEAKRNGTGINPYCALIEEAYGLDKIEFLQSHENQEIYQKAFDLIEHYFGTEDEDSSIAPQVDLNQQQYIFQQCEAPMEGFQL
UniProt P52732: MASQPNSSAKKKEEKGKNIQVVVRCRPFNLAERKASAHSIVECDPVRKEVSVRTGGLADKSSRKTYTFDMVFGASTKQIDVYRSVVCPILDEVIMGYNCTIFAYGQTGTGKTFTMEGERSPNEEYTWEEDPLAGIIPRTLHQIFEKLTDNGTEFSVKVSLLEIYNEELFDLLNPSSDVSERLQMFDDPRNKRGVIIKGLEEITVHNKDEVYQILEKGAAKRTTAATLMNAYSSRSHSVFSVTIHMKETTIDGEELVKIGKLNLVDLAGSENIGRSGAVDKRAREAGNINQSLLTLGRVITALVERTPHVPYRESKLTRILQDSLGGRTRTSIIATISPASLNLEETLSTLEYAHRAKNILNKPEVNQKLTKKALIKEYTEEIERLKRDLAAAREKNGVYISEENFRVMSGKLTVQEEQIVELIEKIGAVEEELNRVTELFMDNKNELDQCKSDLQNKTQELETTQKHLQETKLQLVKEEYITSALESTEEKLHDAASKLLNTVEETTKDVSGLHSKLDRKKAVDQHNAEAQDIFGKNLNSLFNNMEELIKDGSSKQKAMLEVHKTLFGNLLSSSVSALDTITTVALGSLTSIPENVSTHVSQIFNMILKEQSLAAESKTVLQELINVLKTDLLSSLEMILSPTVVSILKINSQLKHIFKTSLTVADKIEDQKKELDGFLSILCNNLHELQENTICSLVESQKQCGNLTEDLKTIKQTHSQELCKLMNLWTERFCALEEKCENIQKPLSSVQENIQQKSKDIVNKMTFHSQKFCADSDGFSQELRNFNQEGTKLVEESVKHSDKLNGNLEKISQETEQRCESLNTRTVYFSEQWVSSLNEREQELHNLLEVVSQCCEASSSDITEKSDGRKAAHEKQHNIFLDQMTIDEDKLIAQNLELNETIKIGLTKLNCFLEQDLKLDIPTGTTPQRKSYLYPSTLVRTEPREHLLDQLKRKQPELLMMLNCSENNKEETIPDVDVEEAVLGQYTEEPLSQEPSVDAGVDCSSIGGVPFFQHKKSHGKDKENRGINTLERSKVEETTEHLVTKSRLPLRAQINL

Compound: CN(CCOC1=CC=C(C=C1)C[C@H]2C(=O)NC(=O)S2)C3=CC=CC=N3 (racemic) [rosiglitazone]
Test: log2 fold change, soluble protein after heating vs DMSO (PISA); higher = thermal stabilisation; K562 cells, 10 uM, 30 min; active = over 0.2 and 3.5 SD of the protein, either way, in both replicates (recomputed)
In short: (§1)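 K562 cells (2×10^6 cells/mL) were treated with 10 μM compound for 30 min, and aliquots were heated for 3 min over 48°C-58°C. Pooled aliquots were extracted in PBS with 0.5% NP-40 at 4°C, and the supernatant after 21,000xg for 90 min was measured by TMTpro 16plex LC-MS/MS with channel sums equalised. Reported thermal stability, relative to control samples and from duplicates, is a log2 fold change.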

| Target | log2 fold change |
| --- | --- |
| JUNB (UniProt P17275) | inactive: 0.002 |
| KCNN4 (UniProt O15554) | inactive: 0.152 |
| KNOP1 (UniProt Q1ED39) | inactive: -0.07 |
| KIF13B (UniProt Q9NQT8) | inactive: 0.058 |
| KIFC3 isoform 6 (UniProt Q9BVG8) | inactive: 0.238 |
| KIAA1755 (UniProt Q5JYT7) | inactive: 0.11 |
| KAT7 (UniProt O95251) | inactive: 0.028 |
| KIF14 (UniProt Q15058) | inactive: 0.083 |
| KBTBD4 isoform 2 (UniProt Q9NVX7) | inactive: 0.057 |
| KRTCAP2 isoform 2 (UniProt Q8N6L1) | inactive: 0.021 |
| KAT6B (UniProt Q8WYB5) | inactive: -0.026 |
| KIF26A (UniProt Q9ULI4) | inactive: -0.036 |
| KLF1 (UniProt Q13351) | inactive: -0.215 |
| KNG1 (UniProt P01042) | inactive: 0.043 |
| KLF16 (UniProt Q9BXK1) | inactive: 0.054 |
| JPT2 isoform 2 (UniProt Q9H910) | inactive: 0.004 |

Compound: CN1C2=C(C3=C1C(=O)N(N=C3)CC4=CC(=CC=C4)N)SC(=C2)S(=O)C
Test: as above
In short: as §1

| Target | log2 fold change |
| --- | --- |
| KSR1 (UniProt Q8IVT5) | inactive: -0.05 |
| KIF3A (UniProt Q9Y496) | inactive: -0.023 |
| KPNB1 (UniProt Q14974) | inactive: 0.102 |
| KCNN4 (UniProt O15554) | inactive: 0.119 |
| KLHL18 (UniProt O94889) | inactive: 0 |
| KNOP1 (UniProt Q1ED39) | inactive: 0.136 |
| KIFBP (UniProt Q96EK5) | inactive: 0.095 |
| KIF13B (UniProt Q9NQT8) | inactive: -0.001 |
| KCNK5 (UniProt O95279) | inactive: 0.223 |
| KPNA1 (UniProt P52294) | inactive: 0.104 |
| KIAA1755 (UniProt Q5JYT7) | inactive: 0.043 |
| KATNBL1 (UniProt Q9H079) | inactive: 0.192 |
| KIF14 (UniProt Q15058) | inactive: -0.117 |
| KBTBD4 isoform 2 (UniProt Q9NVX7) | inactive: -0.013 |
| KHDC4 (UniProt Q7Z7F0) | inactive: 0.071 |
| KNTC1 (UniProt P50748) | inactive: 0.027 |
| KIF3B (UniProt O15066) | inactive: -0.052 |
| KLC2 (UniProt Q9H0B6) | inactive: -0.013 |
| KRTCAP2 isoform 2 (UniProt Q8N6L1) | inactive: -0.034 |
| KLF1 (UniProt Q13351) | inactive: -0.041 |
| KNG1 (UniProt P01042) | inactive: 0.183 |
| KEAP1 (UniProt Q14145) | inactive: 0.056 |
| KLF16 (UniProt Q9BXK1) | inactive: 0.149 |
| KIF1B isoform 4 (UniProt O60333) | inactive: -0.001 |
| KIF11 (UniProt P52732) | inactive: 0.182 |
| JMJD6 isoform 3 (UniProt Q6NYC1) | inactive: 0.006 |

Compound: CN1CCC(CNc2ccc3ncc(-c4cccc(OC(F)(F)F)c4)n3n2)CC1
Test: as above
In short: as §1

| Target | log2 fold change |
| --- | --- |
| KSR1 (UniProt Q8IVT5) | active: -0.878 |
| KIF3A (UniProt Q9Y496) | inactive: -0.162 |
| KPNB1 (UniProt Q14974) | inactive: -0.212 |
| JUNB (UniProt P17275) | inactive: 0.055 |
| KLHL18 (UniProt O94889) | inactive: 0.034 |
| KNOP1 (UniProt Q1ED39) | inactive: 0.283 |
| KIFBP (UniProt Q96EK5) | inactive: -0.046 |
| KIF13B (UniProt Q9NQT8) | inactive: 0.008 |
| KCNK5 (UniProt O95279) | inactive: -0.073 |
| KPNA1 (UniProt P52294) | inactive: -0.082 |
| KIFC3 isoform 6 (UniProt Q9BVG8) | inactive: -0.37 |
| KATNBL1 (UniProt Q9H079) | inactive: 0.072 |
| KHDC4 (UniProt Q7Z7F0) | inactive: -0.014 |
| KNTC1 (UniProt P50748) | inactive: -0.219 |
| KIF3B (UniProt O15066) | active: 0.378 |
| KLC2 (UniProt Q9H0B6) | inactive: -0.131 |
| KRTCAP2 isoform 2 (UniProt Q8N6L1) | inactive: -0.003 |
| KIZ (UniProt Q2M2Z5) | inactive: -0.399 |
| KAT6B (UniProt Q8WYB5) | inactive: 0 |
| KLF1 (UniProt Q13351) | inactive: 0.212 |
| KNG1 (UniProt P01042) | inactive: 0.239 |
| KEAP1 (UniProt Q14145) | inactive: 0.053 |
| KLF16 (UniProt Q9BXK1) | inactive: 0.036 |
| KIF1B isoform 4 (UniProt O60333) | active: -0.299 |
| KIF11 (UniProt P52732) | inactive: 0.022 |
| JMJD6 isoform 3 (UniProt Q6NYC1) | inactive: -0.09 |

Compound: CN1CCN(CCOc2cc(OC3CCOCC3)c3c(Nc4c(Cl)ccc5c4OCO5)ncnc3c2)CC1 [saracatinib]
Test: as above
In short: as §1

| Target | log2 fold change |
| --- | --- |
| KSR1 (UniProt Q8IVT5) | inactive: -0.229 |
| KIF3A (UniProt Q9Y496) | inactive: -0.102 |
| KPNB1 (UniProt Q14974) | inactive: -0.076 |
| KCNN4 (UniProt O15554) | inactive: 0.015 |
| KLHL18 (UniProt O94889) | inactive: -0.033 |
| KNOP1 (UniProt Q1ED39) | inactive: -0.124 |
| KIFBP (UniProt Q96EK5) | inactive: -0.039 |
| KIF13B (UniProt Q9NQT8) | inactive: 0.119 |
| KCNK5 (UniProt O95279) | inactive: -0.444 |
| KPNA1 (UniProt P52294) | inactive: -0.014 |
| KIAA1755 (UniProt Q5JYT7) | inactive: -0.057 |
| KATNBL1 (UniProt Q9H079) | inactive: 0.126 |
| KIF14 (UniProt Q15058) | inactive: 0.038 |
| KBTBD4 isoform 2 (UniProt Q9NVX7) | inactive: 0.042 |
| KHDC4 (UniProt Q7Z7F0) | inactive: -0.139 |
| KNTC1 (UniProt P50748) | inactive: -0.034 |
| KIF3B (UniProt O15066) | inactive: -0.068 |
| KLC2 (UniProt Q9H0B6) | inactive: -0.107 |
| KRTCAP2 isoform 2 (UniProt Q8N6L1) | inactive: 0.109 |
| KLF1 (UniProt Q13351) | inactive: 0.075 |
| KNG1 (UniProt P01042) | inactive: 0.049 |
| KEAP1 (UniProt Q14145) | inactive: -0.009 |
| KLF16 (UniProt Q9BXK1) | inactive: -0.004 |
| KIF1B isoform 4 (UniProt O60333) | inactive: -0.033 |
| KIF11 (UniProt P52732) | inactive: -0.059 |
| JMJD6 isoform 3 (UniProt Q6NYC1) | inactive: -0.01 |
